Results published in paper PMC6423139.
No constants are given. Whether binding was seen depends on the method and setting. Binding seen in cells or lysates may run through a third protein. Some entries that bind do so weakly or less than the wild type.

Chains of the proteins cited; added tags and fusions are not shown.
UniProt Q09472: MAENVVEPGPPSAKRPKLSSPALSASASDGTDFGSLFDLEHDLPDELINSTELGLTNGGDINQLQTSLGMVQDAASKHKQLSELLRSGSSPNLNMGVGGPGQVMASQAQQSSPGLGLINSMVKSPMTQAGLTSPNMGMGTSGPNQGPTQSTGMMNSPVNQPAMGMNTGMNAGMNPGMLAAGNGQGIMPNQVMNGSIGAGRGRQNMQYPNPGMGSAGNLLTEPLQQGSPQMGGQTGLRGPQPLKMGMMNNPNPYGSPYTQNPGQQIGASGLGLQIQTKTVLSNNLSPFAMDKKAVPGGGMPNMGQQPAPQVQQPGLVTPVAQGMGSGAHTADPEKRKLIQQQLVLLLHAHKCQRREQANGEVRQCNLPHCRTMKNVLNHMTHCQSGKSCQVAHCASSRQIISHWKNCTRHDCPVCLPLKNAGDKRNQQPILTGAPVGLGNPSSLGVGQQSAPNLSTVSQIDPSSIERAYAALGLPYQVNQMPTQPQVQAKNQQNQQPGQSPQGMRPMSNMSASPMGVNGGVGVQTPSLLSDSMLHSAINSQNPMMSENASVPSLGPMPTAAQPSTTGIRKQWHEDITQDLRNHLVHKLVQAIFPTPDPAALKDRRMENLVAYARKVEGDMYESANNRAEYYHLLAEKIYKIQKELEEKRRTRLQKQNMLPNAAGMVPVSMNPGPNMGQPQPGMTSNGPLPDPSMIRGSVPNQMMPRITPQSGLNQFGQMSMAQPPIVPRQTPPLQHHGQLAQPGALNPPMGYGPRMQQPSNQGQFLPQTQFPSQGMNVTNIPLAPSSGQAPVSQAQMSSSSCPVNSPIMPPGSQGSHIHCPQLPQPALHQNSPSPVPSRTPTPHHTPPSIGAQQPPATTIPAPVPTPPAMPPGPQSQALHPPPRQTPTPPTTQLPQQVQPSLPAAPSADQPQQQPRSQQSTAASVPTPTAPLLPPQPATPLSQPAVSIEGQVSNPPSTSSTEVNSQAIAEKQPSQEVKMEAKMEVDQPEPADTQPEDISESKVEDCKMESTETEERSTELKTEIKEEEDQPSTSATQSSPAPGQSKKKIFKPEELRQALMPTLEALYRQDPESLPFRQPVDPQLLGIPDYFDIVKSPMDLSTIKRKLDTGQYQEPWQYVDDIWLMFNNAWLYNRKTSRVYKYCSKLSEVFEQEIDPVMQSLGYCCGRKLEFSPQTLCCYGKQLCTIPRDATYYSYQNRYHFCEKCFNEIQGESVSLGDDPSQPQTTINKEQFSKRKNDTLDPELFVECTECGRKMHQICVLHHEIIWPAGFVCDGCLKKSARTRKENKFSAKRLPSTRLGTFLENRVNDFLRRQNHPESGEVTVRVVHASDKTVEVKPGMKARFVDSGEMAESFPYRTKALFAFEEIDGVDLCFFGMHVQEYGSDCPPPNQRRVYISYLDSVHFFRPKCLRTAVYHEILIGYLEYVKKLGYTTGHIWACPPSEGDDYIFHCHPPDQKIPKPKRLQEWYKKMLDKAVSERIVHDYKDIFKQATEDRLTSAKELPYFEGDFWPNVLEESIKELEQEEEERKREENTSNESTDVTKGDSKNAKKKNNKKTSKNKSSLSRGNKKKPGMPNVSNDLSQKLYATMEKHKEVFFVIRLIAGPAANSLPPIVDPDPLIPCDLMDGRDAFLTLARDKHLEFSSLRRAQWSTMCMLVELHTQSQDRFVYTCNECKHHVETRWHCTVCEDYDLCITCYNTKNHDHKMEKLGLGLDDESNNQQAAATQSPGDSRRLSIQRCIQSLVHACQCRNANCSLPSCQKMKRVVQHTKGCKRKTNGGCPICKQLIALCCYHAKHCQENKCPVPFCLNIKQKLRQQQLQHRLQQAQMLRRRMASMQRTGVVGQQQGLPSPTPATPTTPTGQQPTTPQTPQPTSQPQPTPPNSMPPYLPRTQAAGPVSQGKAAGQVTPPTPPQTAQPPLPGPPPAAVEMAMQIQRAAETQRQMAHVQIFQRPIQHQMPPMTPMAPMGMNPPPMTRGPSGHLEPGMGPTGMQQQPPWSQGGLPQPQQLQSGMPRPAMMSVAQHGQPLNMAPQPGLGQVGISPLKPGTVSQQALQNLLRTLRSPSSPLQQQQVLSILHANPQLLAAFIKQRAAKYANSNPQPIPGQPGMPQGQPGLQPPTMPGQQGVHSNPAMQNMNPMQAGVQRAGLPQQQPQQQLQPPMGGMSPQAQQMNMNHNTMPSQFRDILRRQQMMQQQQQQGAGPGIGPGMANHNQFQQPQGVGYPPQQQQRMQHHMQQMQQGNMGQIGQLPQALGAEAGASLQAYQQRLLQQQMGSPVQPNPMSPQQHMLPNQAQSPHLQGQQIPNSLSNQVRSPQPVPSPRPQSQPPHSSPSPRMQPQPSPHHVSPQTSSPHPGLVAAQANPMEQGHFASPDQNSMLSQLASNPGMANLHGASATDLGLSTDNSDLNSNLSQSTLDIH

Target: T1, endogenous Polι (MRC5 fibroblasts) (human (endogenous in MRC5)) (UniProt Q9UNA4)
T1 sequence: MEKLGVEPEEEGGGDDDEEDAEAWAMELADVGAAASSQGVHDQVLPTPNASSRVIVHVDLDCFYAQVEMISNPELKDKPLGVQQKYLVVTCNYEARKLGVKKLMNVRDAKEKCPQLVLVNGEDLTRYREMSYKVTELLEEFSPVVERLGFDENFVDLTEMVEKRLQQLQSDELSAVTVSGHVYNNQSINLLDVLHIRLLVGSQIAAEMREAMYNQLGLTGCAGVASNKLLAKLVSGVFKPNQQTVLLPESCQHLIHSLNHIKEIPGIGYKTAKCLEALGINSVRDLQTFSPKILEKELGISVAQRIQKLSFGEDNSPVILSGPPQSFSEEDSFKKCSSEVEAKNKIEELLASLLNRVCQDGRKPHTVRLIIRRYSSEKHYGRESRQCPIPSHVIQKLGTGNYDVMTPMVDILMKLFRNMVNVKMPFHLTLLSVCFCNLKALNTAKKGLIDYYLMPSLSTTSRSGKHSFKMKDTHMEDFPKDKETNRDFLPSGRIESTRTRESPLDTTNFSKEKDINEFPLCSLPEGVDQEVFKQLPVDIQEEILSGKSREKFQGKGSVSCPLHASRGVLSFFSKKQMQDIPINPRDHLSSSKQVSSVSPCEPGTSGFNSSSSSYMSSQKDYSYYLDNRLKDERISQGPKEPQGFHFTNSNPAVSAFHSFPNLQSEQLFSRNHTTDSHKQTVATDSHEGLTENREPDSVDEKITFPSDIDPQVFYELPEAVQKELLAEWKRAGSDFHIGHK
Test: proximity ligation; endogenous Polι and p300 in fixed MRC5 fibroblasts; primary antibodies for Polι and p300, anti-mouse MINUS and anti-rabbit PLUS probes; confocal microscopy

binding: binds
Substance: endogenous p300 (MRC5 fibroblasts) (from UniProt Q09472 1-2414) (enzyme)
